In PubChem BioAssay AID222 (DTP/NCI, 2004):
The list shows only some results of the screen, not a fair sample: it gathers tests that were run many times, whatever their T/C, doses with no T/C, and many T/C values between a quarter and a half above the control. Other doses and runs of a compound stand elsewhere. T/C: endpoint of the treated group in % of that of the vehicle group. Some doses have a count of surviving animals in place of a T/C: the source holds a T/C of zero for them, seemingly a mark for toxic or unscored doses. Some doses without a T/C left all or most animals alive at the check, yet need not have been tolerated: the source hardly ever lists a survival T/C far under the control, and the zero likely stands for such cases as well. Counts of survivors are from the toxicity check (mostly the fifth day) where no day follows; animals may have died later. Schedules are NCI's codes, read here as Q, the interval in days (D) or hours (H), X, the number of doses. Counts like (3×) stand for listed records that agree. Some doses were run more than once; their values stand side by side, smallest first. Some schedule codes hold Z or #, which are not explained here. Some molecules as drawn cover several salts, stereoisomers or complexes of the source; a dose is that of the sample tested. For survival time, this PubChem deposit counts one and a half times the control or more as active, and values a quarter to a half above the control carry no call in these data; other NCI protocols may use other cut-offs. Some T/C values are followed by the survivors on the day toxicity was checked, most often the fifth; without a count, all were alive then.

System: C57BL/6 mice, intracerebral ependymoblastoma, median survival T/C
Test: NCI In Vivo Anticancer Drug Screen. Data for tumor model Ependymoblastoma (intracerebral) in C57BL/6 mice
Details: T/C endpoint: median survival time, higher T/C = longer survival
Procedure: The antitumor activity of compounds was measured in mice bearing transplantable tumors. Survival or tumor size were measured and the results are expressed as the measurement made in the treated group (T) divided by the measurement made in the vehicle treated control group (C). The tumor model used in this assay is Ependymoblastoma (intracerebral) in C57BL/6 mice

[1] = dose: 128.0 mg/kg/injection, schedule: Q01DX005 (ip), vehicle: saline with Tween-80
[2] = dose: 32.0 mg/kg/injection, schedule: Q01DX005 (ip), vehicle: saline with Tween-80
[3] = dose: 64.0 mg/kg/injection, schedule: Q01DX005 (ip), vehicle: Klucel (hydroxypropylcellulose) (HPC)
[4] = dose: 64.0 mg/kg/injection, schedule: Q01DX005 (ip), vehicle: saline with Tween-80
[5] = dose: 1.0 mg/kg/injection, schedule: Q01DX001 (ip), vehicle: saline

SMILES: Nc1nncs1
- survivor count (dose: 30.0 mg/kg/injection, schedule: Q01DX009 (ip), vehicle: Klucel (hydroxypropylcellulose) (HPC)): 10 of 10
- survivor count (dose: 60.0 mg/kg/injection, schedule: Q01DX009 (ip), vehicle: Klucel (hydroxypropylcellulose) (HPC)): 10 of 10
- survivor count (dose: 120.0 mg/kg/injection, schedule: Q01DX009 (ip), vehicle: Klucel (hydroxypropylcellulose) (HPC)): 6 of 10
- survivor count [1]: 10 of 10
- survivor count (dose: 240.0 mg/kg/injection, schedule: Q01DX009 (ip), vehicle: Klucel (hydroxypropylcellulose) (HPC)): 2 of 10
- survivor count (dose: 256.0 mg/kg/injection, schedule: Q01DX005 (ip), vehicle: saline with Tween-80): 10 of 10
- survivor count (dose: 512.0 mg/kg/injection, schedule: Q01DX005 (ip), vehicle: saline with Tween-80): 10 of 10

SMILES: CCC1=C[C@H]2CN(CCc3c([nH]c4ccccc34)[C@@](C(=O)OC)(c3cc4c(cc3OC)N(C)[C@H]3[C@@](O)(C(=O)OC)[C@H](OC(C)=O)[C@]5(CC)C=CCN6CC[C@]43[C@@H]65)C2)C1
- survivor count (dose: 3.2 mg/kg/injection, schedule: Q01DX005 (ip), vehicle: saline): 6 of 6
- survivor count (dose: 6.4 mg/kg/injection, schedule: Q01DX005 (ip), vehicle: saline): 5 of 6
- survivor count (dose: 12.8 mg/kg/injection, schedule: Q01DX005 (ip), vehicle: saline): 2 of 6

SMILES: COc1ccc(CC2C(=O)NC(C)C(=O)N(C)C3C(=O)N(C)C(Cc4ccc(O)c(c4)Oc4ccc(cc4)C3O)C(=O)NC(C)C(=O)NC(C)C(=O)N2C)cc1 (stereo not drawn)
- survivor count (dose: 2.0 mg/kg/injection, schedule: Q01DX005 (ip), vehicle: saline): 8 of 10

SMILES: O=C1c2ccccc2C(=O)c2c(NCCNCCO)ccc(NCCNCCO)c21
- survivor count (dose: 16.0 mg/kg/injection, schedule: Q01DX005 (ip), vehicle: other): 10 of 10
- survivor count (dose: 16.0 mg/kg/injection, schedule: Q01DX005 (ip), vehicle: saline with Tween-80): 8 of 10
- survivor count (dose: 16.0 mg/kg/injection, schedule: Q01DX005 (ip), vehicle: water): 10 of 10
- survivor count (dose: 32.0 mg/kg/injection, schedule: Q01DX005 (ip), vehicle: other): 8 of 10
- survivor count [2]: 5 of 10
- survivor count (dose: 32.0 mg/kg/injection, schedule: Q01DX005 (ip), vehicle: water): 10 of 10
- survivor count [3]: 10 of 10
- survivor count (dose: 64.0 mg/kg/injection, schedule: Q01DX005 (ip), vehicle: other): 0 of 10
- survivor count [4]: 2 of 10
- survivor count (dose: 64.0 mg/kg/injection, schedule: Q01DX005 (ip), vehicle: water): 4 of 10 and 8 of 10
- survivor count (dose: 64.0 mg/kg/injection, schedule: Q04DX003 (ip), vehicle: water): 8 of 10
- survivor count (dose: 128.0 mg/kg/injection, schedule: Q01DX001 (ip), vehicle: water): 9 of 10
- survivor count (dose: 128.0 mg/kg/injection, schedule: Q01DX005 (ip), vehicle: other): 0 of 10
- survivor count (dose: 128.0 mg/kg/injection, schedule: Q01DX005 (ip), vehicle: water): 2 of 10
- survivor count (dose: 128.0 mg/kg/injection, schedule: Q04DX003 (ip), vehicle: Klucel (hydroxypropylcellulose) (HPC)): 9 of 10
- survivor count (dose: 128.0 mg/kg/injection, schedule: Q04DX003 (ip), vehicle: water): 6 of 10
- survivor count (dose: 256.0 mg/kg/injection, schedule: Q01DX001 (ip), vehicle: water): 1 of 10
- survivor count (dose: 512.0 mg/kg/injection, schedule: Q01DX001 (ip), vehicle: Klucel (hydroxypropylcellulose) (HPC)): 0 of 10
- survivor count (dose: 512.0 mg/kg/injection, schedule: Q01DX001 (ip), vehicle: water): 1 of 10

SMILES: CN(C)CCCNc1c2ccccc2nc2cccc([N+](=O)[O-])c12
- survivor count (dose: 0.06 mg/kg/injection, schedule: Q## X006 (ip), vehicle: saline): 10 of 10
- survivor count (dose: 0.12 mg/kg/injection, schedule: Q01DX005 (ip), vehicle: saline): 4 of 10
- survivor count (dose: 0.12 mg/kg/injection, schedule: Q## X006 (ip), vehicle: saline): 10 of 10
- survivor count (dose: 0.25 mg/kg/injection, schedule: Q01DX005 (ip), vehicle: saline): 3 of 10, 7 of 10, 9 of 10
- survivor count (dose: 0.25 mg/kg/injection, schedule: Q## X006 (ip), vehicle: saline): 10 of 10
- T/C (dose: 0.25 mg/kg/injection, schedule: Q#A X002 (ip), vehicle: saline): 125 % of control [8 of 10 alive]
- T/C (dose: 0.5 mg/kg/injection, schedule: Q01DX001 (ip), vehicle: saline): 86, 89 (2×), 90 % of control [3 of 10 alive]
- survivor count (dose: 0.5 mg/kg/injection, schedule: Q01DX005 (ip), vehicle: saline): 0 of 10 and 2 of 10
- survivor count (dose: 0.5 mg/kg/injection, schedule: Q#A X002 (ip), vehicle: saline): 1 of 10
- T/C [5]: 91 % of control [4 of 10 alive]
- survivor count [5]: 4 of 10, 8 of 10, 10 of 10
- survivor count (dose: 1.0 mg/kg/injection, schedule: Q01DX001 (oral), vehicle: saline): 5 of 10
- survivor count (dose: 1.0 mg/kg/injection, schedule: Q01DX005 (ip), vehicle: saline): 0 of 10 and 1 of 10
- survivor count (dose: 2.0 mg/kg/injection, schedule: Q01DX001 (ip), vehicle: saline): 2 of 10 and 9 of 10
- survivor count (dose: 4.0 mg/kg/injection, schedule: Q01DX001 (ip), vehicle: saline): 0 of 10 and 1 of 10
- survivor count (dose: 4.0 mg/kg/injection, schedule: Q01DX001 (oral), vehicle: saline): 6 of 10
- survivor count (dose: 4.0 mg/kg/injection, schedule: Q#A X002 (ip), vehicle: saline): 0 of 10
- survivor count (dose: 8.0 mg/kg/injection, schedule: Q01DX001 (ip), vehicle: saline): 0 of 10
- survivor count (dose: 16.0 mg/kg/injection, schedule: Q01DX001 (oral), vehicle: saline): 1 of 10
- survivor count (dose: 31.2 micrograms/kg/injection, schedule: Q01DX005 (ip), vehicle: saline): 10 of 10
- T/C (dose: 125.0 micrograms/kg/injection, schedule: Q01DX005 (ip), vehicle: saline, evaluated on day 45): 94 % of control
- T/C (dose: 125.0 micrograms/kg/injection, schedule: Q01DX005 (ip), vehicle: saline, evaluated on day 60): 92 and 96 % of control
- survivor count (dose: 125.0 micrograms/kg/injection, schedule: Q01DX005 (ip), vehicle: saline): 6 of 10
- survivor count (dose: 250.0 micrograms/kg/injection, schedule: Q01DX005 (ip), vehicle: saline): 10 of 10 (2×)
- survivor count (dose: 500.0 micrograms/kg/injection, schedule: Q01DX005 (ip), vehicle: saline): 10 of 10
- survivor count (dose: 1000.0 micrograms/kg/injection, schedule: Q01DX005 (ip), vehicle: saline): 2 of 10

SMILES: O=C(NP(=O)(N1CC1)N1CC1)c1cc(I)ccc1I
- survivor count [2]: 9 of 10
- T/C (dose: 32.0 mg/kg/injection, schedule: Q01DX005 (ip), vehicle: saline): 132 % of control
- survivor count [3]: 10 of 10
- survivor count [4]: 10 of 10
- survivor count (dose: 128.0 mg/kg/injection, schedule: Q01DX005 (ip), vehicle: Klucel (hydroxypropylcellulose) (HPC)): 9 of 10
- survivor count [1]: 9 of 10
- survivor count (dose: 128.0 mg/kg/injection, schedule: Q01DX005 (ip), vehicle: saline): 10 of 10
